The test addresses T1, HA-tagged catalytic mutant SPP D265A (signal peptide peptidase) (human) (UniProt Q8TCT9).
T1 sequence: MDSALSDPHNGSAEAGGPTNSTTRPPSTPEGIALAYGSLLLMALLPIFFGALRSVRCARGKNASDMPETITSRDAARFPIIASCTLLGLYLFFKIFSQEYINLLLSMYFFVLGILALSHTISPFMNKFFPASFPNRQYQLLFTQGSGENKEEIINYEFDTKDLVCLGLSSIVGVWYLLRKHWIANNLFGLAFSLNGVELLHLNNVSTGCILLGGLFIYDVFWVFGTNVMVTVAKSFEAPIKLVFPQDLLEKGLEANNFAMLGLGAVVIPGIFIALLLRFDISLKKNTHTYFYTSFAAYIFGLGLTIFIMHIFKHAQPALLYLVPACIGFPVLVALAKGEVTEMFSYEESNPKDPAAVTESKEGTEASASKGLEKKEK
The experiment in a line: co-IP.

Protein sequences, listed by entry. Tags and fused reporters are not part of them. Lines headed by an entry give the natural chain unless they say otherwise; changes in a name come on top.
UniProt Q07065, whole entry: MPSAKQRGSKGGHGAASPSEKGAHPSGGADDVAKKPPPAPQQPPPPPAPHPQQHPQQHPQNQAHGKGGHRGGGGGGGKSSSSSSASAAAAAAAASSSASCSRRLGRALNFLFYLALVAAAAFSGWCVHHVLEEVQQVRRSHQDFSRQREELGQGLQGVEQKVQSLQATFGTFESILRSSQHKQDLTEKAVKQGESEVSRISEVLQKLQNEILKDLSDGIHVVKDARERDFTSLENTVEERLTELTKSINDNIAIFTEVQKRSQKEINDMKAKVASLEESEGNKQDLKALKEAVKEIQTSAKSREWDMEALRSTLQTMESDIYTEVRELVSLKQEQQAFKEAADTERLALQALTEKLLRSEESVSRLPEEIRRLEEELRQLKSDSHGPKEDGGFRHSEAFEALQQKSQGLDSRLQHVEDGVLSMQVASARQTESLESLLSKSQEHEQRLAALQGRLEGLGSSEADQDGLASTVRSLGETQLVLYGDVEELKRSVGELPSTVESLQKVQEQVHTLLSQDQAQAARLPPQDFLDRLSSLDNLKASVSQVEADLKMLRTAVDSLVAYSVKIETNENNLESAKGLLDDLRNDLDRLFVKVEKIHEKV

Results are given in words; binding and its absence hold for the method and conditions named. Binding seen in cells or lysates may run through a third protein. Some binding calls cover weakened binding; strength is not graded here. Where a sequence is shown, tags or fusion partners need not be part of it.

The record followed here is article doi:10.1101/2021.07.19.452877.

“CLIMP63, endogenous ER protein (from UniProt Q07065 1-602)”: the binding entry is on record as “no binding”.

B1: squalene synthase (SQS), endogenous (enzyme, UniProt P37268 1-417)
chain: MEFVKCLGHPEEFYNLVRFRIGGKRKVMPKMDQDSLSSSLKTCYKYLNQTSRSFAAVIQALDGEMRNAVCIFYLVLRALDTLEDDMTISVEKKVPLLHNFHSFLYQPDWRFMESKEKDRQVLEDFPTISLEFRNLAEKYQTVIADICRRMGIGMAEFLDKHVTSEQEWDKYCHYVAGLVGIGLSRLFSASEFEDPLVGEDTERANSMGLFLQKTNIIRDYLEDQQGGREFWPQEVWSRYVKKLGDFAKPENIDLAVQCLNELITNALHHIPDVITYLSRLRNQSVFNFCAIPQVMAIATLAACYNNQQVFKGAVKIRKGQAVTLMMDATNMPAVKAIIYQYMEEIYHRIPDSDPSSSKTRQIISTIRTQNLPNCQLISRSHYSPIYLSFVMLLAALSWQYLTTLSQVTEDYVQTGEH
For the molecule B1, the binding entry is on record as “binds”.
